Experimental data from publication PMC3744072.
These are yes or no findings as the source states them, for the method shown. Some results given as binding are weak or reduced against the parent protein; the word gives no strength.

Molecular target: matrilin-2 (mouse) (mouse (endogenous in mouse cartilage)) (UniProt O08746)
Test: non-reducing SDS-PAGE and Western blot; sequential extracts (buffer 1: 0.15 M NaCl; buffer 2: 1 M NaCl, 10 mM EDTA; buffer 3: 4 M GuHCl, 10 mM EDTA) of knee cartilage of 3-week-old mice, non-reducing 4-13.5% gels; oligomers assigned by apparent size

B1: matrilin-2 (mouse) (protein, UniProt O08746 24-956)
chain: RERPQARFPSRGRHVRMYPQTALLESSCENKRADLVFIIDSSRSVNTYDYAKVKEFILDILQFLDIGPDVTRVGLLQYGSTVKNEFSLKTFKRKSEVERAVKRMRHLSTGTMTGLAIQYALNIAFSEAEGARPLRENVPRIIMIVTDGRPQDSVAEVAAKARNTGILIFAIGVGQVDLNTLKAIGSEPHKDHVFLVANFSQIESLTSVFQNKLCTVHMCSVLEHNCAHFCLNTPGSYICKCKQGYILSTDQKTCRIQDLCATEDHGCEQLCVNMLGSFVCQCYSGYTLAEDGKRCTAVDYCASENHGCEHECVNAESSYLCRCHEGFALNSDKKTCSKIDYCASSNHGCQHECVNAQTSALCRCLKGFMLNPDRKTCRRINYCALNKPGCEHECVNTEEGHYCRCRQGYNLDPNGKTCSRVDHCAQQDHGCEQLCLNTEESFVCQCSEGFLINDDLKTCSRADYCLLSNHGCEYSCVNTDKSFACQCPEGHVLRSDGKTCAKLDSCALGDHGCEHSCVSSEDSFVCQCFEGYILRDDGKTCRRKDVCQDVNHGCEHLCVNSGESYVCKCLEGFRLAEDGKRCRRKNVCKSTQHGCEHMCVNNGNSYLCRCSEGFVLAEDGKHCKRCTEGPIDLVFVIDGSKSLGEENFETVKHFVTGIIDSLAVSPKAARVGLLQYSTQVRTEFTLRGFSSAKEMKKAVTHMKYMGKGSMTGLALKHMFERSFTQVEGARPPSTQVPRVAIVFTDGRAQDDVSEWASKAKANGITMYAVGVGKAIEEELQEIASEPIDKHLFYAEDFSTMGEISEKLKEGICEALEDSGGRQDSAAWDLPQQAHQPTEPEPVTIKIKDLLSCSNFAVQHRFLFEEDNLSRSTQKLFHSTKSSGNPLEESQDQCKCENLILFQNVANEEVRKLTQRLEEMTQRMEALENRLKYR
For B1, the binding was “binds”.
